Not every entry of the source has a single result; some have several. The other results are left out here. The source may hold further records. The values listed for one entry differ for a reason that is not stated; some may be repeats, others may stem from another dose, organism or construct than stated.
Target: α6β3γ2 GABAA/BzR (Homo sapiens, UniProt P18507+Q16445)
Test: Competition binding to HEK cell membranes, α6β3γ2
Conditions: read-out: Ki α6

CN1C(=O)CN=C(c2ccccc2[N+](=O)[O-])c2cc([N+](=O)[O-])ccc21
Ki: 10 µM and 1 µM

Source: PMC4657098, “A Review of the Updated Pharmacophore for the Alpha 5 GABA(A) Benzodiazepine Receptor Model” (International Journal of Medicinal Chemistry, 2015)
